No constants are given. Whether binding was seen depends on the method and setting. In cells and extracts the contact can be indirect. Some binding calls cover weakened binding; strength is not graded here. Where a sequence is shown, tags or fusion partners need not be part of it.
Molecular target: PKR (human (endogenous in HeLa)) (UniProt P19525)
Assay: co-IP; HeLa M cells transfected with Flag-wt PACT/RAX or Flag-lear-5J, harvested 24 h later; whole-cell extract immunoprecipitated overnight at 4°C with anti-PKR antibody (71/10) on protein A sepharose in IP buffer (20 mM Tris-HCl pH 7.5, 150 mM NaCl, 1 mM EDTA, 1% Triton X-100, 20% glycerol); three washes; blot with anti-Flag M2

Sequences of proteins named here, by UniProt entry; tags and fusion partners are left off.
UniProt P19525: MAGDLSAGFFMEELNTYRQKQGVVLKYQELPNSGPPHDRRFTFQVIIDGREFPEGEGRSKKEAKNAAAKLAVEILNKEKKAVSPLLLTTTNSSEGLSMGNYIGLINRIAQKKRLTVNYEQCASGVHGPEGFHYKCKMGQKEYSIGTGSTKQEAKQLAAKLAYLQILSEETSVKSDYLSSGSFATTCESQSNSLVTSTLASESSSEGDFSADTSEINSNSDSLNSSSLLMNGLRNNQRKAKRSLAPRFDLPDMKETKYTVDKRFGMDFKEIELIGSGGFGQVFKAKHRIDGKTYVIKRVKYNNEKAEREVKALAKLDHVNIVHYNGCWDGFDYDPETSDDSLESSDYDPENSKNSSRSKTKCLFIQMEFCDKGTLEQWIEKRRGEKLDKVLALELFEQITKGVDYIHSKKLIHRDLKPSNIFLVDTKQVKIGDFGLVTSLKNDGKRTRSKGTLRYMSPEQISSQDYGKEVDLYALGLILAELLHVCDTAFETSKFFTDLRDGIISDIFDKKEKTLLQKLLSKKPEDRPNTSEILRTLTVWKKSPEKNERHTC

B1: Flag-tagged wt PACT/RAX (protein, UniProt Q9WTX2 1-313)
chain: MSHSRHRAEAPPLQREDSGTFSLGKMITAKPGKTPIQVLHEYGMKTKNIPVYECERSDVQVHVPTFTFRVTVGDITCTGEGTSKKLAKHRAAEAAINILKANASICFAVPDPLMPDPSKQPKNQLNPIGSLQELAIHHGWRLPEYTLSQEGGPAHKREYTTICRLESFMETGKGASKKQAKRNAAEKFLAKFSNISPENHISLTNVVGHSLGCTWHSLRNSPGEKINLLKRSLLSLPNTDYIQLLSEIASEQGFNITYLDIEELSANGQYQCLAELSTSPITVCHGSGISCGNAQSDAAHNALQYLKIIAERK
binding: binds

From publication PMC11625895
